Laboratory results from article PMC8699236.
Results are given in words; binding and its absence hold for the method and conditions named. Binding seen in cells or lysates may run through a third protein. A yes stands for co-enrichment or nearness to the bait. Other partners may have been found. For part of these data: Where a sequence is shown, tags or fusion partners need not be part of it.

Chains of the proteins cited; added tags and fusions are not shown.
UniProt P38936: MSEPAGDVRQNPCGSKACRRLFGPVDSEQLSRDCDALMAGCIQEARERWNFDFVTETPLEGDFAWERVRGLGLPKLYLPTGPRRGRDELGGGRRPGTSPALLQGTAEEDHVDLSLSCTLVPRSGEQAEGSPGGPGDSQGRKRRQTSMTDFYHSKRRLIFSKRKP
UniProt P48643: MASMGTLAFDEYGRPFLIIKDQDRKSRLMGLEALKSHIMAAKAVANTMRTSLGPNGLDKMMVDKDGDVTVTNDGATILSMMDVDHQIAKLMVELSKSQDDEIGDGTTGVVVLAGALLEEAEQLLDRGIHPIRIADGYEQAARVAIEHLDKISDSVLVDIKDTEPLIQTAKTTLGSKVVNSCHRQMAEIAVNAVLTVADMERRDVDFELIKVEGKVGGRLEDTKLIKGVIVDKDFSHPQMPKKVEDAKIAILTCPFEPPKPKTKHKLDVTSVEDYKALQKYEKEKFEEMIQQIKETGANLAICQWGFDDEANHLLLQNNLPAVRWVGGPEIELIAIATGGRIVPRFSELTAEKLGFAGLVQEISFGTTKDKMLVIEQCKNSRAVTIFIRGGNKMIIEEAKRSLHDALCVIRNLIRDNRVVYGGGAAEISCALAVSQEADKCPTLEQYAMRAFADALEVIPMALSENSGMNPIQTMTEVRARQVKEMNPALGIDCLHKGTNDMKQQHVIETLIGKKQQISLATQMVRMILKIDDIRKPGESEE
UniProt P11586: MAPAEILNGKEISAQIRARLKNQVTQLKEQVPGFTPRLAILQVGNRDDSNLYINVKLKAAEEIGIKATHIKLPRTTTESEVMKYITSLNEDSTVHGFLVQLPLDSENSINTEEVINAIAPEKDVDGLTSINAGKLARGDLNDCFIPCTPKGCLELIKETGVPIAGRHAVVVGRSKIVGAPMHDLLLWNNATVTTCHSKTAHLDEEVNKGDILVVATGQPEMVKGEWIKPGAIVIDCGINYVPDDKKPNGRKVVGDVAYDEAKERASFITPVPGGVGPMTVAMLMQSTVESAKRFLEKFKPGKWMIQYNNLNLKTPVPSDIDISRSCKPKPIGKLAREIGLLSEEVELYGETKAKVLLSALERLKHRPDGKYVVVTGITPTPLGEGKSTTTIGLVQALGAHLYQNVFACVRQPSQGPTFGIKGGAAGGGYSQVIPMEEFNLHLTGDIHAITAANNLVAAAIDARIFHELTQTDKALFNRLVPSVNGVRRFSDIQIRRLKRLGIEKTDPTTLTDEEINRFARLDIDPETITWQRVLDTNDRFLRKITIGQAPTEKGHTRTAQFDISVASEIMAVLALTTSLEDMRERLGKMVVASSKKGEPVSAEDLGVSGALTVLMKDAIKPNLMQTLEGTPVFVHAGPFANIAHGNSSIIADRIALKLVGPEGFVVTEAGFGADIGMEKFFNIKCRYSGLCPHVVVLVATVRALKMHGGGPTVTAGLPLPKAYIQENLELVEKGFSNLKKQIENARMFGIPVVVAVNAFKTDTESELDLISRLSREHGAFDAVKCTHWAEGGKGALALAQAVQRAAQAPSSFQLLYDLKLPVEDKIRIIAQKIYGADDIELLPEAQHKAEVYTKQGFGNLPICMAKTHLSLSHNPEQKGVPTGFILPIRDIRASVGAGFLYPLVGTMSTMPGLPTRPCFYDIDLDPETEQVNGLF
UniProt Q99627: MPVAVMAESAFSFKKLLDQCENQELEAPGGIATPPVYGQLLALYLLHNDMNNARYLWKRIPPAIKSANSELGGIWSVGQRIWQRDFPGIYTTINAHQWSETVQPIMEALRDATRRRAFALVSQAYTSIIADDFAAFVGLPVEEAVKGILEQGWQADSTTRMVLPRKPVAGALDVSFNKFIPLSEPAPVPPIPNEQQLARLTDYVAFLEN
UniProt Q9BRP4: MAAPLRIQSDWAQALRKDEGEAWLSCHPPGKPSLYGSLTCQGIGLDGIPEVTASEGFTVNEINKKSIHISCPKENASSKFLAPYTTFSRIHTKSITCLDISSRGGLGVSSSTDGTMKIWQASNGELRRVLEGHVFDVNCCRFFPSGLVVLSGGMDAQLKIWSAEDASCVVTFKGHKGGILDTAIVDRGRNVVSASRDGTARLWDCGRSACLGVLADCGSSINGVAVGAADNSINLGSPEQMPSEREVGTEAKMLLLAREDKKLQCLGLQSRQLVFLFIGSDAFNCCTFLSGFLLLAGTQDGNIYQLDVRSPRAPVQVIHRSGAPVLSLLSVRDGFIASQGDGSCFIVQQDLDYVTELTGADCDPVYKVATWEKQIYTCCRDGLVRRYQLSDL
UniProt P25685: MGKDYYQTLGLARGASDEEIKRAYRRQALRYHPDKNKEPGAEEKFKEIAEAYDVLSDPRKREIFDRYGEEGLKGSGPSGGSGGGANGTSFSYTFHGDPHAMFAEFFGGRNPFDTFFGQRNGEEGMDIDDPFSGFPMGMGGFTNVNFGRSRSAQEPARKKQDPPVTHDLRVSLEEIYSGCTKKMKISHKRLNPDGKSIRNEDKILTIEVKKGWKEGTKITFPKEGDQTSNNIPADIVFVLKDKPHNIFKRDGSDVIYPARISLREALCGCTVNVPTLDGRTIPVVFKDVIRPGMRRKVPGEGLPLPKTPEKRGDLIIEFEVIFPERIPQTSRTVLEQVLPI
UniProt Q9UBN7: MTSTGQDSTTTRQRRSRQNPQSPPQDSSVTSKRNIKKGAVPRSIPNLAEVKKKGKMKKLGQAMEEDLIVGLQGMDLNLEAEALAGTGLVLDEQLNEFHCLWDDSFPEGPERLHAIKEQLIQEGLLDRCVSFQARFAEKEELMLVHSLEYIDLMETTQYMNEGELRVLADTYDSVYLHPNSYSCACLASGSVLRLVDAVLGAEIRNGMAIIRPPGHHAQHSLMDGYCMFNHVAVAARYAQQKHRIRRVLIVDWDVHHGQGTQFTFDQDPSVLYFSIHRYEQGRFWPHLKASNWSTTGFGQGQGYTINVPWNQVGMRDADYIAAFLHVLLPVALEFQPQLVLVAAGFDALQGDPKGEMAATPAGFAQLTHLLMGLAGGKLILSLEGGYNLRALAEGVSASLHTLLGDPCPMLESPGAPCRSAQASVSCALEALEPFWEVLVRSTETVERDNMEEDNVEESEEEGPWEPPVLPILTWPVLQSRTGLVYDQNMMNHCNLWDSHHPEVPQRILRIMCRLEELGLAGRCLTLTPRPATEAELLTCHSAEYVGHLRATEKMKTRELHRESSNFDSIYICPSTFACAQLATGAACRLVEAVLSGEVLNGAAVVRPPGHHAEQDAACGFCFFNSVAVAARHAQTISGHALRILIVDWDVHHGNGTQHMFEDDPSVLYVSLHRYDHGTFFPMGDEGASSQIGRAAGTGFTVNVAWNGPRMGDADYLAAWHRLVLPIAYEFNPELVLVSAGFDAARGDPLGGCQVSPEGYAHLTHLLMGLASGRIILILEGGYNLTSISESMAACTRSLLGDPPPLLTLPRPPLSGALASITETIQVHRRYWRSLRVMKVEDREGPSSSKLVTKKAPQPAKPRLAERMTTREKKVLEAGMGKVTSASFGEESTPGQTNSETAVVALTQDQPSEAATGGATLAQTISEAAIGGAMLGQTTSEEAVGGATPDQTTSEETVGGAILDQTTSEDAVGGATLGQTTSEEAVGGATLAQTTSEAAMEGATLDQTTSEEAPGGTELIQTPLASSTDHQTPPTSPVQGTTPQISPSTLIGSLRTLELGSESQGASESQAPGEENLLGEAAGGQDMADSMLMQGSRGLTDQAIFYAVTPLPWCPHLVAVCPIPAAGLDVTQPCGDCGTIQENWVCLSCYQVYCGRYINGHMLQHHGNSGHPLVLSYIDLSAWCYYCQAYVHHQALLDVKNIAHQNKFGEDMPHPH
UniProt Q15291: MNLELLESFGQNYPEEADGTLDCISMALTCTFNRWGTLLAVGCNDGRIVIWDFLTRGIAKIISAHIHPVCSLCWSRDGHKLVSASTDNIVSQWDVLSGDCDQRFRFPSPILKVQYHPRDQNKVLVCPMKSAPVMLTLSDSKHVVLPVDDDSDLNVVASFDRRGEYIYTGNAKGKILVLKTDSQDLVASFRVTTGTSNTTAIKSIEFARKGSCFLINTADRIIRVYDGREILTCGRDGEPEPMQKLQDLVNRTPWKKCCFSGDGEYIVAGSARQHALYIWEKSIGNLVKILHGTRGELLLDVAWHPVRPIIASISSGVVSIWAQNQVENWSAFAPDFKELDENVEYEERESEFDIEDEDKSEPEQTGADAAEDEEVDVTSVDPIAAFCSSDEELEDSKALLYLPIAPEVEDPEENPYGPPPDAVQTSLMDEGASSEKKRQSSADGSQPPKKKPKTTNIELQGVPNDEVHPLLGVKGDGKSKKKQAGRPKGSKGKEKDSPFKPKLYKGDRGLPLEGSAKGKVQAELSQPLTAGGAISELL
UniProt P07737: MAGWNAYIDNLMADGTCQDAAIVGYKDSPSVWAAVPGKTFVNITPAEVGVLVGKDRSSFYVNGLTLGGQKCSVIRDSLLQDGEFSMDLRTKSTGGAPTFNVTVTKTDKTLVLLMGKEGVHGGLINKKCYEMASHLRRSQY
UniProt P39880: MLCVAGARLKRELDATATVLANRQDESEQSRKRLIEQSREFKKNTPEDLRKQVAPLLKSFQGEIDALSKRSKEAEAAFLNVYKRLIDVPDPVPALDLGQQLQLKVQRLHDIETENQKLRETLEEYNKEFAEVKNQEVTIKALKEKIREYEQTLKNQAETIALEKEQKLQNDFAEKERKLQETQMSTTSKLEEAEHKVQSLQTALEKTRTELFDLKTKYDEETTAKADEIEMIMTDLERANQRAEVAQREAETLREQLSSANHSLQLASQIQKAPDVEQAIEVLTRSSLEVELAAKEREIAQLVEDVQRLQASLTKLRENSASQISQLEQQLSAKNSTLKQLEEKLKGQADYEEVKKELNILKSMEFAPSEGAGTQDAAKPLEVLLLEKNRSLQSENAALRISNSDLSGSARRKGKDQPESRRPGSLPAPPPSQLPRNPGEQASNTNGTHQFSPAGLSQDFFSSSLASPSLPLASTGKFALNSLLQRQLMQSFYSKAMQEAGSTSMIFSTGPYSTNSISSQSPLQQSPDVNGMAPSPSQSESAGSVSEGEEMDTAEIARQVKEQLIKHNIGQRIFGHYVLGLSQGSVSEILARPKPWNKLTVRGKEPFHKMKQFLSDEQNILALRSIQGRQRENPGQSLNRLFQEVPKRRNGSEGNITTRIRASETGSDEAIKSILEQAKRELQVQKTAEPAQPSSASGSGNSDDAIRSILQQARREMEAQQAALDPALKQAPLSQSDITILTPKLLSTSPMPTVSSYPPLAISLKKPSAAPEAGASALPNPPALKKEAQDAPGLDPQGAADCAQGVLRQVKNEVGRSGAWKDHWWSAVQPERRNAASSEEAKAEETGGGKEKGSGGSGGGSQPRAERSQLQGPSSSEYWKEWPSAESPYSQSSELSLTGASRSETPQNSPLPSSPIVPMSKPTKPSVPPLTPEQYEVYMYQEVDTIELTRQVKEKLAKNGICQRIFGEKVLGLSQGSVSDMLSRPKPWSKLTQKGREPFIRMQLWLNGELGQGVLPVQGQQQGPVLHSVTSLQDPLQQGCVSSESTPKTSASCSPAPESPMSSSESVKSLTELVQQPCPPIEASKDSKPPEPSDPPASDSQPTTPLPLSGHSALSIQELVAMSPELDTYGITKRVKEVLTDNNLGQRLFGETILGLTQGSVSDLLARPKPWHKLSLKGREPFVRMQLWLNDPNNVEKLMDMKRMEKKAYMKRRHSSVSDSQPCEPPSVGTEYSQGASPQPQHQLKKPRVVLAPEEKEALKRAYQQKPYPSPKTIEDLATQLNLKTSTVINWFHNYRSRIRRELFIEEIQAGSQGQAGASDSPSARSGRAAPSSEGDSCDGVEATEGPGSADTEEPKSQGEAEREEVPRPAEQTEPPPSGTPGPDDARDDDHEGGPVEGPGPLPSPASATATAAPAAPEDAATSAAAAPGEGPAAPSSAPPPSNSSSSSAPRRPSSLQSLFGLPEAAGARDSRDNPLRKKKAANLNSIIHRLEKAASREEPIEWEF
UniProt Q9C005: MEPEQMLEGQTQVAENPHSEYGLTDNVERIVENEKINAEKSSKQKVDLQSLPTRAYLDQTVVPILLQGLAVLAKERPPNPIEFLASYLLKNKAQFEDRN
UniProt P01106: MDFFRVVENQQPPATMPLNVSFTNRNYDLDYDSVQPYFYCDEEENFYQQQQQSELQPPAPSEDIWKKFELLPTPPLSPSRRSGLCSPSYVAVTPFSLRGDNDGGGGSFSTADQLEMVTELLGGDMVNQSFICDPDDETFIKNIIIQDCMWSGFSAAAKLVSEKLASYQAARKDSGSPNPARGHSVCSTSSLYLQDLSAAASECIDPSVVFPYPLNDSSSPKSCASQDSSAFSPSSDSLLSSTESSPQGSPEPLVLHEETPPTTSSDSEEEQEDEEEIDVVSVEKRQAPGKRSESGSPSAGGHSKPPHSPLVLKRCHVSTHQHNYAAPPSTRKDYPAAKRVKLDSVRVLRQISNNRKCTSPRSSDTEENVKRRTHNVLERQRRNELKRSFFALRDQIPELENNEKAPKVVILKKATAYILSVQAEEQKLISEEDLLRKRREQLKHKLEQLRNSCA

Columns and labels:
[1] = molecular target: T1, TRIB1-tGFP (human) (UniProt Q96RU8); assay: affinity purification with mass spectrometry; tGFP-fusion bait from lysate of stable MCF7 cells induced with 2 μg/mL doxycycline for 24 h, on turboGFP-Trap beads; LC-MS, label-free, against tGFP control
T1 sequence: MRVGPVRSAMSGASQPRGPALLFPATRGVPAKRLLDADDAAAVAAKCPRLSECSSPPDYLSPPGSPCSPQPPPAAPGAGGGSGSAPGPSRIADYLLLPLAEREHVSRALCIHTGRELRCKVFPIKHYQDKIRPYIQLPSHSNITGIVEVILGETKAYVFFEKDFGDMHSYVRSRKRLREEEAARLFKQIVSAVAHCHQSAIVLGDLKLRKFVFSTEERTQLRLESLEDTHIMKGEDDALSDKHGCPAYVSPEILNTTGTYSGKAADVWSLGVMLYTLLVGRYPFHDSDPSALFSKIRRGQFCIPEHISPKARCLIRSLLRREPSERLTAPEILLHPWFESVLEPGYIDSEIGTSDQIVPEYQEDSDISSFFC

[2] = molecular target: TRIB3-ΔC-terminal (human) (UniProt Q96RU7); assay: affinity purification with mass spectrometry; GFP-fusion bait from lysate of transfected HEK293T cells on GFP-Trap beads, 2 h at 4 °C; lysis buffer 50 mM Tris pH 8.0, 1 mM EDTA, 0.1% NP40, 250 mM NaCl, 10% glycerol; on-bead digestion, LC-MS, label-free, against GFP control (or mutant against mutant or wild type)
[3] = molecular target: T2, TRIB1 GFP-fusion protein (human) (UniProt Q96RU8); assay: as above
T2 sequence: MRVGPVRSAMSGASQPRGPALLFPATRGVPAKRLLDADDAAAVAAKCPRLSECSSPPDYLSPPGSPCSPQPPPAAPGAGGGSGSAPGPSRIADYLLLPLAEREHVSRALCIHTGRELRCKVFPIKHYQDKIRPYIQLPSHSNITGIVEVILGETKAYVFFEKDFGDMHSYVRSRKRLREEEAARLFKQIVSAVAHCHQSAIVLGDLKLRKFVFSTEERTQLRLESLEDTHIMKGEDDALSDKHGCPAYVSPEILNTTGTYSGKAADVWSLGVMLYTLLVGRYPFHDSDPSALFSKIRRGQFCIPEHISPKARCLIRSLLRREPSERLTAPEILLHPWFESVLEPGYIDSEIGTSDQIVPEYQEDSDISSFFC

[4] = molecular target: T3, TRIB2 GFP-fusion protein (human) (UniProt Q92519); assay: as above
T3 sequence: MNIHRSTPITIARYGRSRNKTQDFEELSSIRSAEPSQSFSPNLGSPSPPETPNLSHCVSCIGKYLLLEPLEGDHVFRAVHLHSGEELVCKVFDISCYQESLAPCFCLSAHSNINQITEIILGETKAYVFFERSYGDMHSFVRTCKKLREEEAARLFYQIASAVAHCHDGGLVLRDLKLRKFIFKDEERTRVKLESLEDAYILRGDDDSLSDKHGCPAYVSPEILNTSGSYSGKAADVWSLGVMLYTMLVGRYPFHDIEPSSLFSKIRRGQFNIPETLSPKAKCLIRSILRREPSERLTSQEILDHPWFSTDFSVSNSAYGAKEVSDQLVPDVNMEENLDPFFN

Cyclin Dependent Kinase Inhibitor 1A (from UniProt P38936 1-164)
binding [1]: binds

T-complex protein 1 subunit epsilon (from UniProt P48643 1-541)
binding [1]: binds

DNA-dependent protein kinase catalytic subunit (from UniProt P78527 1-4128)
binding [1]: binds

C-1-tetrahydrofolate synthase (from UniProt P11586 1-935)
binding [1]: binds

COP9 Signalosome Subunit 8 (from UniProt Q99627 1-209)
binding [2]: binds

Proteasomal ATPase Associated Factor 1 (from UniProt Q9BRP4 1-392)
binding [1]: binds

DnaJ Heat Shock Protein Family Member B1 (from UniProt P25685 1-340)
binding [1]: binds

Histone Deacetylase 6 (from UniProt Q9UBN7 1-1215)
binding [1]: binds
binding [3]: binds

RB Binding Protein 5 (from UniProt Q15291 1-538)
binding [2]: binds

Profilin 1 (from UniProt P07737 1-140)
binding [1]: binds

Cut like Homeobox 1 (from UniProt P39880 1-1505)
binding [1]: binds

Dpy-30 Histone Methyltransferase Complex (from UniProt Q9C005 1-99)
binding [2]: binds

Set1/Ash2 Histone Methyltranferase Complex Subunit (from UniProt Q9UBL3 1-628)
binding [2]: binds

MYC Proto-Oncogene (from UniProt P01106 1-454)
binding [2]: binds

Stress induced Phosphoprotein 1 (from UniProt P31948 1-543)
binding [1]: binds
binding [3]: binds

B1: Protein kinase D1 (protein, UniProt Q15139 1-912)
chain: MSAPPVLRPPSPLLPVAAAAAAAAAALVPGSGPGPAPFLAPVAAPVGGISFHLQIGLSREPVLLLQDSSGDYSLAHVREMACSIVDQKFPECGFYGMYDKILLFRHDPTSENILQLVKAASDIQEGDLIEVVLSASATFEDFQIRPHALFVHSYRAPAFCDHCGEMLWGLVRQGLKCEGCGLNYHKRCAFKIPNNCSGVRRRRLSNVSLTGVSTIRTSSAELSTSAPDEPLLQKSPSESFIGREKRSNSQSYIGRPIHLDKILMSKVKVPHTFVIHSYTRPTVCQYCKKLLKGLFRQGLQCKDCRFNCHKRCAPKVPNNCLGEVTINGDLLSPGAESDVVMEEGSDDNDSERNSGLMDDMEEAMVQDAEMAMAECQNDSGEMQDPDPDHEDANRTISPSTSNNIPLMRVVQSVKHTKRKSSTVMKEGWMVHYTSKDTLRKRHYWRLDSKCITLFQNDTGSRYYKEIPLSEILSLEPVKTSALIPNGANPHCFEITTANVVYYVGENVVNPSSPSPNNSVLTSGVGADVARMWEIAIQHALMPVIPKGSSVGTGTNLHRDISVSISVSNCQIQENVDISTVYQIFPDEVLGSGQFGIVYGGKHRKTGRDVAIKIIDKLRFPTKQESQLRNEVAILQNLHHPGVVNLECMFETPERVFVVMEKLHGDMLEMILSSEKGRLPEHITKFLITQILVALRHLHFKNIVHCDLKPENVLLASADPFPQVKLCDFGFARIIGEKSFRRSVVGTPAYLAPEVLRNKGYNRSLDMWSVGVIIYVSLSGTFPFNEDEDIHDQIQNAAFMYPPNPWKEISHEAIDLINNLLQVKMRKRYSVDKTLSHPWLQDYQTWLDLRELECKIGERYITHESDDLRWEKYAGEQGLQYPTHLINPSASHSDTPETEETEMKALGERVSIL
binding [2]: binds

B2: Nuclear Factor of Activated T Cells 3 (protein, UniProt Q12968 1-1075)
chain: MTTANCGAHDELDFKLVFGEDGAPAPPPPGSRPADLEPDDCASIYIFNVDPPPSTLTTPLCLPHHGLPSHSSVLSPSFQLQSHKNYEGTCEIPESKYSPLGGPKPFECPSIQITSISPNCHQELDAHEDDLQINDPEREFLERPSRDHLYLPLEPSYRESSLSPSPASSISSRSWFSDASSCESLSHIYDDVDSELNEAAARFTLGSPLTSPGGSPGGCPGEETWHQQYGLGHSLSPRQSPCHSPRSSVTDENWLSPRPASGPSSRPTSPCGKRRHSSAEVCYAGSLSPHHSPVPSPGHSPRGSVTEDTWLNASVHGGSGLGPAVFPFQYCVETDIPLKTRKTSEDQAAILPGKLELCSDDQGSLSPARETSIDDGLGSQYPLKKDSCGDQFLSVPSPFTWSKPKPGHTPIFRTSSLPPLDWPLPAHFGQCELKIEVQPKTHHRAHYETEGSRGAVKASTGGHPVVKLLGYNEKPINLQMFIGTADDRYLRPHAFYQVHRITGKTVATASQEIIIASTKVLEIPLLPENNMSASIDCAGILKLRNSDIELRKGETDIGRKNTRVRLVFRVHIPQPSGKVLSLQIASIPVECSQRSAQELPHIEKYSINSCSVNGGHEMVVTGSNFLPESKIIFLEKGQDGRPQWEVEGKIIREKCQGAHIVLEVPPYHNPAVTAAVQVHFYLCNGKRKKSQSQRFTYTPVLMKQEHREEIDLSSVPSLPVPHPAQTQRPSSDSGCSHDSVLSGQRSLICSIPQTYASMVTSSHLPQLQCRDESVSKEQHMIPSPIVHQPFQVTPTPPVGSSYQPMQTNVVYNGPTCLPINAASSQEFDSVLFQQDATLSGLVNLGCQPLSSIPFHSSNSGSTGHLLAHTPHSVHTLPHLQSMGYHCSNTGQRSLSSPVADQITGQPSSQLQPITYGPSHSGSATTASPAASHPLASSPLSGPPSPQLQPMPYQSPSSGTASSPSPATRMHSGQHSTQAQSTGQGGLSAPSSLICHSLCDPASFPPDGATVSIKPEPEDREPNFATIGLQDITLDDVNEIIGRDMSQISVSQGAGVSRQAPLPSPESLDLGRSDGL
binding [2]: binds

B3: PDGFA Associated Protein 1 (protein, UniProt Q13442 1-181)
chain: MPKGGRKGGHKGRARQYTSPEEIDAQLQAEKQKAREEEEQKEGGDGAAGDPKKEKKSLDSDESEDEEDDYQQKRKGVEGLIDIENPNRVAQTTKKVTQLDLDGPKELSRREREEIEKQKAKERYMKMHLAGKTEQAKADLARLAIIRKQREEAARKKEEERKAKDDATLSGKRMQSLSLNK
binding [1]: binds

B4: Endothelial Differentiation Related Factor 1 (protein, UniProt O60869 1-148)
chain: MAESDWDTVTVLRKKGPTAAQAKSKQAILAAQRRGEDVETSKKWAAGQNKQHSITKNTAKLDRETEELHHDRVTLEVGKVIQQGRQSKGLTQKDLATKINEKPQVIADYESGRAIPNNQVLGKIERAIGLKLRGKDIGKPIEKGPRAK
binding [1]: binds

B5: Peroxiredoxin 2 (protein, UniProt P32119 1-198)
chain: MASGNARIGKPAPDFKATAVVDGAFKEVKLSDYKGKYVVLFFYPLDFTFVCPTEIIAFSNRAEDFRKLGCEVLGVSVDSQFTHLAWINTPRKEGGLGPLNIPLLADVTRRLSEDYGVLKTDEGIAYRGLFIIDGKGVLRQITVNDLPVGRSVDEALRLVQAFQYTDEHGEVCPAGWKPGSDTIKPNVDDSKEYFSKHN
binding [1]: binds

B6: Tribbles Pseudokinase 1 (protein, UniProt Q96RU8 1-372)
chain: MRVGPVRSAMSGASQPRGPALLFPATRGVPAKRLLDADDAAAVAAKCPRLSECSSPPDYLSPPGSPCSPQPPPAAPGAGGGSGSAPGPSRIADYLLLPLAEREHVSRALCIHTGRELRCKVFPIKHYQDKIRPYIQLPSHSNITGIVEVILGETKAYVFFEKDFGDMHSYVRSRKRLREEEAARLFKQIVSAVAHCHQSAIVLGDLKLRKFVFSTEERTQLRLESLEDTHIMKGEDDALSDKHGCPAYVSPEILNTTGTYSGKAADVWSLGVMLYTLLVGRYPFHDSDPSALFSKIRRGQFCIPEHISPKARCLIRSLLRREPSERLTAPEILLHPWFESVLEPGYIDSEIGTSDQIVPEYQEDSDISSFFC
binding [3]: binds
binding [4]: binds
